# PubChem BioAssay AID504764 | Drosophila RNAi Screening Center | 2011
# Purpose: 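Genes whose knock-down alters Notch-dependent transcription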 (primary screen)
# Cells: Drosophila Kc167 cells
# Knock-down reagent: long dsRNA against Drosophila genes
# Duration: about 5 days (4 days dsRNA, then 24 h after transfection)
# Treatment: transfection of constitutively active membrane-tethered Notch lacking the extracellular domain, read 24 h later
# Detection: 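Firefly luciferase from an E(spl)m3 reporter with active Notch, plus control-promoter and uninduced reporter wells for normalisation; unnormalised counts, duplicate wells a and b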
# Reading the numbers: induced reporter light, run 1, well a and induced reporter light, run 1, well b: higher = more light from the Notch target reporter with active Notch; control promoter light, run 1, well a and control promoter light, run 1, well b: higher = more light from the viral control promoter (cell number, transfection, viability); uninduced reporter light, run 1, well a: higher = more light from the Notch target reporter without active Notch
# Active means: 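Hit if the duplicate-averaged log2 ratio of induced to control-promoter light gives a plate-wise z beyond ±2, or induced to uninduced beyond ±1.8; weak-control or discordant-duplicate wells dropped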
# Meaning of the calls: active = modifier hit (raised or lowered Notch signal); inactive = not a hit
# The screen tested about 22,000 reagents; shown is a random part of those with a known target gene and a result. Of all reagents, 403 (1.9%) got an active call. 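Unnormalised raw counts per well; ratio z-scores behind the hit calls and whether each hit raises or lowers signal are not deposited.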 The record does not give: the amount of reagent.
Target gene,dsRNA,"induced reporter light, run 1, well a","induced reporter light, run 1, well b","control promoter light, run 1, well a","control promoter light, run 1, well b","uninduced reporter light, run 1, well a",Call
Cyp6v1,DRSC20565,1.00e5,99040,95405,1.01e5,10655,inactive
CG9632,DRSC16528,1.80e5,1.85e5,1.76e5,1.97e5,15280,inactive
Git,DRSC06620,1.76e5,1.45e5,1.56e5,1.51e5,14330,inactive
wa-cup,DRSC12511,87740,1.15e5,1.10e5,1.01e5,5870,inactive
CR42532,DRSC06713,1.20e5,1.24e5,1.62e5,1.36e5,10275,inactive
GstE12,DRSC04047,1.78e5,1.51e5,2.11e5,1.97e5,13690,inactive
CG13110,DRSC02208,1.27e5,1.56e5,77365,1.10e5,16710,inactive
NFAT,DRSC18991,86395,87170,41920,43160,8435,inactive
NFAT,DRSC19393,42305,36515,36880,34965,3180,active
Ir21a,DRSC00528,99390,1.08e5,94725,45480,8395,inactive
Sr-CII,DRSC07557,94280,80775,1.19e5,1.11e5,7110,inactive
CG14950 (retired record),DRSC08409,1.06e5,1.26e5,1.76e5,1.77e5,7650,inactive
alpha-Man-IIb,DRSC16898,2.23e5,2.55e5,3.32e5,3.63e5,18475,inactive
Cyp12e1,DRSC16622,64175,71130,66805,46420,3865,inactive
CG3358,DRSC04992,1.80e5,1.51e5,1.44e5,1.96e5,11862,inactive
Cbp20,DRSC16601,2.17e5,1.94e5,1.55e5,1.31e5,12805,active
NSD,DRSC15691,1.41e5,1.44e5,1.85e5,1.69e5,11600,inactive
CG9294,DRSC04537,46035,39060,38160,32255,2240,inactive
Chsy,DRSC20175,69665,47845,62315,62020,8410,inactive
Chsy,DRSC20176,77460,82045,92545,69965,12140,inactive
P5CDh1,DRSC11801,1.88e5,1.70e5,1.10e5,1.51e5,11385,inactive
Cyp4d8,DRSC11131,99610,1.19e5,74085,26780,9890,inactive
Golgin104,DRSC10459,1.79e5,1.20e5,90390,1.18e5,10945,inactive
CG4582,DRSC15605,2.10e5,1.74e5,2.59e5,1.78e5,14165,inactive

In a second layout: entries from further up.
CG9632 [DRSC16528] | induced reporter light, run 1, well a: 1.80e5; induced reporter light, run 1, well b: 1.85e5; control promoter light, run 1, well a: 1.76e5; control promoter light, run 1, well b: 1.97e5; uninduced reporter light, run 1, well a: 15280; Call: inactive
Git [DRSC06620] | induced reporter light, run 1, well a: 1.76e5; induced reporter light, run 1, well b: 1.45e5; control promoter light, run 1, well a: 1.56e5; control promoter light, run 1, well b: 1.51e5; uninduced reporter light, run 1, well a: 14330; Call: inactive
wa-cup [DRSC12511] | induced reporter light, run 1, well a: 87740; induced reporter light, run 1, well b: 1.15e5; control promoter light, run 1, well a: 1.10e5; control promoter light, run 1, well b: 1.01e5; uninduced reporter light, run 1, well a: 5870; Call: inactive
CR42532 [DRSC06713] | induced reporter light, run 1, well a: 1.20e5; induced reporter light, run 1, well b: 1.24e5; control promoter light, run 1, well a: 1.62e5; control promoter light, run 1, well b: 1.36e5; uninduced reporter light, run 1, well a: 10275; Call: inactive

Further results follow.
Target gene,dsRNA,"induced reporter light, run 1, well a","induced reporter light, run 1, well b","control promoter light, run 1, well a","control promoter light, run 1, well b","uninduced reporter light, run 1, well a",Call
CG12986,DRSC19506,61980,51660,64670,52070,8515,inactive
Gmd,DRSC03119,1.39e5,2.00e5,2.09e5,2.14e5,16200,inactive
Ald2,DRSC15799,1.56e5,1.55e5,1.94e5,2.12e5,13505,inactive
HSPBAP1,DRSC14567,1.67e5,1.26e5,1.77e5,1.72e5,12390,inactive
CG43861,DRSC02308,63010,74895,55530,38615,3050,inactive
Nrk,DRSC07480,80485,84850,1.10e5,1.07e5,8400,inactive
CG12111,DRSC17808,1.39e5,1.43e5,2.31e5,2.41e5,9355,inactive
CG16837,DRSC04283,1.74e5,1.68e5,1.99e5,1.89e5,14050,inactive
spt4,DRSC07696,2.24e5,1.84e5,1.87e5,2.12e5,21615,inactive
CG18823,DRSC18168,1.15e5,98220,1.69e5,1.50e5,7625,inactive
Obp19b,DRSC20536,82680,1.00e5,1.18e5,1.75e5,10425,inactive
mRpL42,DRSC06235,1.73e5,1.57e5,2.03e5,1.85e5,12920,inactive
Smox,DRSC18716,79455,89435,1.80e5,1.72e5,8290,inactive
CG3222,DRSC10355,1.59e5,1.04e5,1.72e5,1.56e5,6990,inactive
CHMP2B,DRSC10436,1.27e5,1.07e5,99815,57645,9990,inactive
Obp56a,DRSC06085,1.01e5,1.03e5,96585,1.11e5,7785,inactive
CG31845 (retired record),DRSC22257,,,,,,inactive
CG7906,DRSC10928,1.16e5,93655,83040,84970,9280,inactive
LpR1,DRSC15665,2.07e5,2.47e5,2.33e5,2.70e5,14360,inactive
LpR1,DRSC15669,1.80e5,1.80e5,1.96e5,1.61e5,11560,inactive
LpR1,DRSC15670,1.43e5,1.72e5,1.99e5,1.75e5,11818,inactive
prel,DRSC07271,1.64e5,1.98e5,1.51e5,1.85e5,14520,inactive
GILT3,DRSC14672,2.09e5,2.35e5,2.41e5,2.50e5,19005,inactive
jus,DRSC14861,13220,8310,15485,13070,3225,inactive
jus,DRSC14862,1.17e5,1.16e5,1.21e5,1.14e5,8225,inactive
Osi3,DRSC12175,1.05e5,1.13e5,72790,79630,6820,inactive
Rbp,DRSC15724,61445,65705,71700,62485,7390,inactive
Rbp,DRSC15726,2.11e5,2.04e5,1.21e5,1.24e5,15505,inactive
cic,DRSC14276,14000,17342,14770,14440,3600,inactive
cic,DRSC15708,16155,12915,14910,15655,4005,inactive
cic,DRSC16918,1.46e5,1.28e5,1.44e5,1.52e5,12005,inactive
cic,DRSC21243,83495,79020,77860,97790,6790,inactive
Con,DRSC08652,1.32e5,1.34e5,1.03e5,68530,12992,inactive
CG8093,DRSC07078,1.04e5,80100,1.22e5,1.24e5,8665,inactive
CG34370,DRSC03913,84135,67255,1.08e5,74750,6925,inactive
CG34370,DRSC04142,41910,37970,35900,46730,2195,inactive
CG34370,DRSC04143,37355,34480,34350,30175,1875,inactive
CG34370,DRSC04144,36355,35770,44750,30265,2860,inactive
CG8407,DRSC07167,1.07e5,1.22e5,1.67e5,2.31e5,11990,active
Ugt35A1,DRSC16892,1.24e5,1.36e5,1.01e5,87395,10055,inactive
